The target of assay [1] is T1, intein-BHMT (betaine homocysteine S-methyltransferase) (R. norvegicus) (UniProt O09171).
T1 sequence: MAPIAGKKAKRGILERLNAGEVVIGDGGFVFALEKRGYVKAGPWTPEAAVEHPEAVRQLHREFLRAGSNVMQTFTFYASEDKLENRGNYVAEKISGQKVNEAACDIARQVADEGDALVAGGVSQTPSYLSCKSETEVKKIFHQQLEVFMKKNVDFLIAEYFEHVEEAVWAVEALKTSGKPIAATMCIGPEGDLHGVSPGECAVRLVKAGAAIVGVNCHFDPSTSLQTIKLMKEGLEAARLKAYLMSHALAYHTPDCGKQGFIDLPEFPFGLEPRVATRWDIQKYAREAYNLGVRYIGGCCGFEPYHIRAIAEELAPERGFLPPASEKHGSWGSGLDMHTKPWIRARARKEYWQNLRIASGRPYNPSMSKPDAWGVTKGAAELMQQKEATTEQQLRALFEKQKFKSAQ
The assay is described as follows: affinity purification with mass spectrometry; same columns; all eluates of the intein-BHMT column compared with those of the bead-only and intein columns; only the target purified.

For assay [2], the target named is T1, intein-BHMT (betaine homocysteine S-methyltransferase) (R. norvegicus). As to the kind of experiment: affinity purification with mass spectrometry; same intein-BHMT chitin column after the salt gradient; proteins recovered together with BHMT upon intein excision with 30 mM 2-mercaptoethanol, 48 h at 23°C (strong interactors); LC-MS/MS; only the target purified.

Assay [3] has the same target. The assay is described as follows: affinity purification with mass spectrometry; intein-BHMT held on chitin beads; rat liver cytosol first passed over a bead-only and an intein column; 10 mM sodium phosphate pH 7.4, 5 mM EDTA, 0.1 mM EGTA, 4°C; bound proteins eluted with a 0-500 mM NaCl gradient (peak at 50-100 mM NaCl); LC-MS/MS; only the target purified.

No constants are given. Whether binding was seen depends on the method and setting. Binding seen in cells or lysates may run through a third protein. Here binding means that the protein was enriched with, or labelled near, the bait; the list need not be complete. For some assays here: No binding means not detected with the bait.

The values that follow come from PMC6010280.

B1: ornithine transcarbamylase (liver cytosol) (protein, UniProt P00481 33-354)
chain: SQVQLKGRDLLTLKNFTGEEIQYMLWLSADLKFRIKQKGEYLPLLQGKSLGMIFEKRSTRTRLSTETGFALLGGHPSFLTTQDIHLGVNESLTDTARVLSSMTDAVLARVYKQSDLDILAKEATIPIVNGLSDLYHPIQILADYLTLQEHYGSLKGLTLSWIGDGNNILHSIMMSAAKFGMHLQAATPKGYEPDPNIVKLAEQYAKENGTRLSMTNDPLEAARGGNVLITDTWISMGQEDEKKKRLQAFQGYQVTMKTAKVAASDWTFLHCLPRKPEEVDDEVFYSPRSLVFPEAENRKWTIMAVMVSLLTDYSPVLQKPKF
As for B1, in assay [1], the binding entry is “no binding”.

B2: Tyrosine-protein phosphatase non-receptor type 23, PTPN23 (protein, UniProt O88902 1-1499)
chain: LNVNLMLGQAQECLLEKSMLDNRKSFLVARISAQVVDYYKEACRALENPDTASLLGRIQKDWKKLVQMKIYYFAAVAHLHMGKQAEEQQKFGERVAYFQSALDKLNEAIKLAKGQPDTVQDALRFAMDVIGGKYNSAKKDNDFIYHEAVPALDTLQPVKGAPLVKPLPVNPTDPAVTGPDIFAKLVPMAAHEASSLYSEEKAKLLREMLAKIEDKNEVLDQFMDSMQLDPDTVDNLDAYNHIPPQLMEKCAALSVRPDTVKNLVQSMQVLSGVFTDVEASLKDIRDLLEEDELQEQKLQETLGQAGAGPGPSVTKAELGEVRREWAKYTEVHEKASFTNSELHRAMNLHVGNLRLLSGPLDQVRAALPTPALTPEDKAVLQNLKRILAKVQEMRDQRVSLEQQLRELIQKDDITASLVTTDHSEMKKLFEEQLKKYDQLKVYLEQNLAAQDNVLRALTEANVQYAAVRRVLSELDQKWNSTLQTLVASYEAYEDLMKKSQEGKDFYADLESKVAALLERAQSLCRAQEAARQQLLDRELKKKAPPPRPTAPKPLLSRREEGEAAEAGDQPEELRSLPPDMMAGPRLPDPFLGTAAPLHFSPGPFPGSTGPATHYLSGPLPPGTYSGPTQLMQPRAAVPMAPGPVLYPAPVYTSELGLVPRSSPQHGIVSSPYAGVGPPQPIVGLPSAPPPQFSGPELAMDVRPATTTVDSVQAPISSHMALRPGPAPAPPQPCFPVPQPVPQSVPQPQPLPTPYTYSIGTKQHLTGPLPQHHFPPGIPTSFPAPRIGPQPPPQLQPQPQPQPQPQPPPQPQPQPQPQPQPQPQPQPQRPVFGPQPTQQPLPFQHPHLFPSQAPGILTPPPPYPFTPQPGVLGQPPPTRHTQLYPGPPPDTLPPHSGALPFPSPGPPHPHPTLAYGPAPSPRPLGPQATPVSIRGPPPANQPAPSPHLVPSPAPSPGPGPVPSRPPTAEPPPCLRRGAAAADLLSSSPESQHGGTQPPGGGQPLLQPTKVDAAERPTAQALRLIEQDPYEHPERLQKLQQELESFRGQLGDAGALDAVWRELQEAQEHDARGRSIAIARCYSLKNRHQDVMPYDSNRVVLRSGKDDYINASCVEGLSPYCPPLVATQRPLPGTAADFWLMVHEQKVSVIVMLVSEAEMEKQKVARYFPIERGQPMVHGALSVALSSVRTTDTHVERVLSLQFRDQSLKRSLVHLHFPTWPELGLPDSPGNLLRFIQEVHAHYLHQRPLHTPIVVHCSSGVGRTGAFALLYAAVQEVEAGSRIPELPQLVRRMRQQRKHMLQEKLHLKFCHEALVRHVEQVLQRHGVPPPGKPVASMSVSQKSHLPQDSQDLVLGGDVPISSIQATIAKLSIRPLGGLDSPAASLPSLVEPPGLPPASLPEPTPAPPSSPPPPSSPLPEPPQPEEEPSVPEAPSLGPPSSSLELLASLTPEAFSLDSSLRGKQRMSKQNFLQAHNGQGLRAAQPTDDPLSLLDPLWTLNKT
On to B2, for which the binding entry in assay [2] and in assay [3] was “binds” each time.

B3: alpha-2u globulin PGCL1/Major urinary protein (liver cytosol) (protein, UniProt P02761 20-181)
chain: EEASSTRGNLDVAKLNGDWFSIVVASNKREKIEENGSMRVFMQHIDVLENSLGFKFRIKENGECRELYLVAYKTPEDGEYFVEYDGGNTFTILKTDYDRYVMFHLINFKNGETFQLMVLYGRTKDLSSDIKEKFAKLCEAHGITRDNIIDLTKTDRCLQARG
As for B3, in assay [1], the binding result is listed as “no binding”.

B4: glutathione-S-transferase alpha type 2 (liver cytosol) (protein, UniProt P04903 1-222)
chain: MSGKPVLHYFNARGRMECIRWLLAAAGVEFEEKLIQSPEDLEKLKKDGNLMFDQVPMVEIDGMKLAQTRAILNYIATKYDLYGKDMKERALIDMYSEGILDLTEMIIQLVICPPDQREAKTALAKDRTKNRYLPAFEKVLKSHGQDYLVGNRLTRVDIHLLELLLYVEEFDASLLTSFPLLKAFKSRISSLPNVKKFLQPGSQRKPAMDAKQIEEARKVFKF
With B4, the binding result in assay [1] is “no binding”.
